# From the supplement of paper PMC5949888
# ± gives the standard deviation of the averaged measurements. Most values lie at the floor of the assay. Slopes are relative: functional sequences can read slightly below zero.
# Test system: Saccharomyces cerevisiae PS128 hsf1 delta, HSF1(1-493) fusion
# Assay: growth estimate (transactivation domain function in HSF1 fusion, heat-shock survival) (a.u. (slope of normalised read count over time)); higher = stronger growth at 37°C, i.e. more transactivation activity
# Conditions: library: random library
row,Substance,growth estimate
1,YKYTWAVEDWAWGPPVCKRE,< -0.25
2,VLKSAGYQDAVT,< -0.25
3,NLAFKKQTNGFYFSRLALVG,< -0.25
4,QARLQN,< -0.25
5,EPYVLRIQFLLARIHSCTGF,< -0.25
6,VVGLRIFSNQTSGPVPNARL,< -0.25
7,ACFLFI,< -0.25
8,CLVAGQR,< -0.25
9,RDGLAGAEPPLGYLGGATKQ,< -0.25
10,CSAR,< -0.25
11,QMDSLKKGGR,< -0.25
12,HKPLTVD,< -0.25
13,AHSSARINGPSYDASAFYDE,< -0.25
14,CCISRSH,< -0.25
15,KNHVACIPVCLLLLGDPDEA,< -0.25
16,LWV,< -0.25
17,LLDAGPAEIRNFRS,< -0.25
18,GGTCGRHGRARFRASLIEGQ,< -0.25
19,CRLRMGLGLMLVPITSSIGI,< -0.25
20,GRCLPRQLLPRDHVQACAGA,< -0.25
21,NGEPLEVTNAPYTWGLSRRV,< -0.25
22,PGSATAGA,< -0.25
23,GSGGNKTGSNRRPAAAAHIR,< -0.25

row,Substance,growth estimate
1,VKATVGNDAHTCR,< -0.25
2,QVMPIGFVGIHA,< -0.25
3,PQPCRHRVKGRTLHVAIPRS,< -0.25
4,NKE,< -0.25
5,NSGLLIWPGRGLMCGSSRSC,< -0.25
6,VYGMVICYKIVGRSCNGSVW,< -0.25
7,GGVCCRGRVYTRLQRSLPRT,< -0.25
8,RLS,-0.244 ± 0.011
9,AASKYEIGWHRVNALELCSS,< -0.25
10,QDPGLGHAEKYVPEWPISSG,-0.243
11,SDIMWRTVRRS,< -0.25
12,VGSI,< -0.25
13,EALESSRVLPS,< -0.25
14,PPVIAKPSRG,< -0.25
15,TSCCRLDSQASMGRGGPNRG,< -0.25
16,RPTPQSSG,< -0.25
17,KIERCGKRHLGRTGQMSPNI,-0.112
18,GGAHRILCCVRWRTGSGPRV,< -0.25
19,GDFDY,< -0.25
20,CIGSAPGAGRISCKSTEFRA,-0.245
21,AYICDASSLVLEIHAP,< -0.25
22,MFIGSALRGVDLV,< -0.25
23,SSSSSGLGPGDWREVASSSA,< -0.25

row,Substance,growth estimate
1,PCV,< -0.25
2,QGDPLA,< -0.25
3,SVSSLVGLFTVSIEFIMSAA,-0.229
4,EVQGRAN,< -0.25
5,NRRLTVECVNEVSFGNVPLR,< -0.25
6,GDDSAESRG,< -0.25
7,DLLSPRHFEVHYALYHGHTP,< -0.25
8,VVQ,< -0.25
9,VAIGLNSRLLLAYKRKPLKE,< -0.25
10,SNCGGGLLLVRRR,< -0.25
11,ETFLQIRL,< -0.25
12,TLYSLWYKTRFGLVGTK,< -0.25
13,VLI,< -0.25
14,VGNLTPGPL,< -0.25
15,ARLQRYRLWHKSTAVSNP,< -0.25
16,DGLTTQLTGWFPVALARTIL,< -0.25
17,YNDRLSLTRFINYSTHPWVT,< -0.25
18,TLSEVKVVHRTDKR,-0.246
19,QGVHDGYSPQHARLATGIVS,< -0.25
20,GRRDYGVPANCDVRQTGASK,< -0.25
21,LSSSFSATYTVGLLGPSRTD,< -0.25
22,CRLNVDLGRALKATCLGDYC,< -0.25
23,TIQGLGKVLFLPKVVSTQPL,-0.248

row,Substance,growth estimate
1,ASHVCPTW,< -0.25
2,ILNSMDRDYFGAM,< -0.25
3,SGT,< -0.25
4,KGVPIRASRACAGA,< -0.25
5,GLVVLARDVNVGSSRSGTPS,< -0.25
6,VTFRNNGATLLVRFA,< -0.25
7,SLGTGLALSGLVYRGPVIRL,< -0.25
8,HRLGWVQRTTLLLE,< -0.25
9,CCRPVQYYV,< -0.25
10,FFIYVTKAQRV,< -0.25
11,NDIDKGL,< -0.25
12,GGIVLTRL,< -0.25
13,HLNRWYFG,< -0.25
14,LDHQIRAKRVLCAGACIVEG,< -0.25
15,ERCGSRIINNVMS,< -0.25
16,SRT,< -0.25
17,LLAD,< -0.25
18,YQIHVLTMDKPARVPISRSG,< -0.25
19,GYSTEVPYLGSEAEAR,< -0.25
20,LETSEMLLNKRRDYTPGVSA,< -0.25
21,LQMAQI,< -0.25
22,VDLLLLCDSNLALSTNRFKC,< -0.25
23,VVAERQTLKRSD,< -0.25

row,Substance,growth estimate
1,TSRYVCFDDPVGFR,< -0.25
2,DFARKG,< -0.25
3,IASACMDPRILMEFRSMDTV,< -0.25
4,AGY,< -0.25
5,GIKASDGSCEELLNLSFRDP,< -0.25
6,LVGSSKVQLCFGSISDEQVC,< -0.25
7,LCGTTTIGCSSVALIASRVP,< -0.25
8,YNFEQ,< -0.25
9,QVRFSCGLLTSVLEHIGTRG,< -0.25
10,FEGSCVSLSARTEVGHNLMR,< -0.25
11,TMWRSRPTRVSIARGSNDS,< -0.25
12,VLAEPRKISTATG,< -0.25
13,LCPLKGYH,-0.243
14,PRV,< -0.25
15,VMARIRWSTHGGPKGNCCPG,-0.229
16,RRDRMVDPDCLESSRCTRSR,< -0.25
17,LLKTLL,-0.186
18,VYGLCELREQFVKDTRRAFL,< -0.25
19,SNLVSGFLHEADSMRNIRES,< -0.25
20,LSATRPRGCGGPPGWPEGPH,-0.231
21,QTLFRREVS,< -0.25
22,SSSVSKDHVPGLCR,< -0.25
23,CLMHSVE,< -0.25

# Given tab-delimited: entries from further up.
row	Substance	growth estimate
3	SGT	< -0.25
4	KGVPIRASRACAGA	< -0.25
5	GLVVLARDVNVGSSRSGTPS	< -0.25
6	VTFRNNGATLLVRFA	< -0.25
7	SLGTGLALSGLVYRGPVIRL	< -0.25
8	HRLGWVQRTTLLLE	< -0.25
9	CCRPVQYYV	< -0.25
10	FFIYVTKAQRV	< -0.25
11	NDIDKGL	< -0.25
12	GGIVLTRL	< -0.25
13	HLNRWYFG	< -0.25
14	LDHQIRAKRVLCAGACIVEG	< -0.25
15	ERCGSRIINNVMS	< -0.25
16	SRT	< -0.25
17	LLAD	< -0.25
18	YQIHVLTMDKPARVPISRSG	< -0.25
19	GYSTEVPYLGSEAEAR	< -0.25
20	LETSEMLLNKRRDYTPGVSA	< -0.25
21	LQMAQI	< -0.25
22	VDLLLLCDSNLALSTNRFKC	< -0.25
23	VVAERQTLKRSD	< -0.25
1	TSRYVCFDDPVGFR	< -0.25
2	DFARKG	< -0.25
3	IASACMDPRILMEFRSMDTV	< -0.25
4	AGY	< -0.25
5	GIKASDGSCEELLNLSFRDP	< -0.25
6	LVGSSKVQLCFGSISDEQVC	< -0.25
7	LCGTTTIGCSSVALIASRVP	< -0.25
8	YNFEQ	< -0.25
9	QVRFSCGLLTSVLEHIGTRG	< -0.25
10	FEGSCVSLSARTEVGHNLMR	< -0.25
11	TMWRSRPTRVSIARGSNDS	< -0.25
12	VLAEPRKISTATG	< -0.25
13	LCPLKGYH	-0.243
14	PRV	< -0.25
15	VMARIRWSTHGGPKGNCCPG	-0.229
16	RRDRMVDPDCLESSRCTRSR	< -0.25
17	LLKTLL	-0.186
18	VYGLCELREQFVKDTRRAFL	< -0.25
19	SNLVSGFLHEADSMRNIRES	< -0.25
20	LSATRPRGCGGPPGWPEGPH	-0.231
21	QTLFRREVS	< -0.25
22	SSSVSKDHVPGLCR	< -0.25

# Next entries follow:

row,Substance,growth estimate
1,VHWRSRGMKKETLILGSVAY,< -0.25
2,FCRRVVSHGTRERQT,< -0.25
3,LVPSRCSIEIASSVSLPLHD,< -0.25
4,FAVKISMQIDYKGMPSPESC,< -0.25
5,QAG,< -0.25
6,SARHKGFSFIDALQYAKLAR,< -0.25
7,DQKEPFGAIIRDQNP,< -0.25
8,VETIAPVKFRNHHAATAAPL,< -0.25
9,GHFAALVLRHMGPPELLRQG,< -0.25
10,VAFSLWGHRSGVLGTVAS,-0.25
11,PGWLSHRMQGYVHR,< -0.25
12,TAVPSSSRARCVS,< -0.25
13,RDIYNSTGAEHATPRDSIAD,< -0.25
14,VPDFIQRAHPKWPKFSWRQC,< -0.25
15,VGGSQGFCFRASSLYPCGPT,< -0.25
16,WDAVNKWGERCKGLS,< -0.25
17,GLV,< -0.25
18,GEALLEI,< -0.25
19,TMRDI,< -0.25
20,QRTTSALRGPLGQHRSHSRF,< -0.25
21,IVYVSSGEVGRWSWQADDTF,< -0.25
22,TGDT,< -0.25
23,LGRCGFRVRDEPLVRLDLKD,< -0.25

row,Substance,growth estimate
1,HLLCDCKRGWHGFK,< -0.25
2,GAAWKRMTRVG,< -0.25
3,RVLSTR,< -0.25
4,HTT,< -0.25
5,RPLDVSENRTLGDLLGCAHF,< -0.25
6,DHSQLIANNKVVSAPLRAMG,< -0.25
7,LQVSRIGTGQTACLLGTTGR,< -0.25
8,YIKLKI,< -0.25
9,LIGDFML,< -0.25
10,YVSLLLTYSGWRYVIFTEFV,< -0.25
11,FRASAPSLLATQAELVATWT,< -0.25
12,AYGNYSPGSGLAGATDSVAQ,< -0.25
13,WNISVECLSIARMVRHARTA,< -0.25
14,SCKEIAKDCSLTPSSLCAHV,< -0.25
15,PDAYGFRSRRGRA,< -0.25
16,AGSQEKDALTLREPAPHPAG,< -0.25
17,IMA,< -0.25
18,AGDTFG,< -0.25
19,RMGTLRSVRP,< -0.25
20,RCSGVFKVSRALWSPVRSMC,< -0.25
21,AKGTGRAVDMEIGLGSHCLV,< -0.25
22,VWTWSNRQGLGRD,< -0.25
